Results taken from patent publication US9546150B2, “Substituted quinazolin-4-ones for inhibiting ubiquitin specific protease 7” (HYBRIGENICS SA, priority 2011, dated 2017).
Some of these results come from one statement about several compounds together.

Sequences of proteins named here, by UniProt entry; tags and fusion partners are left off.
UniProt Q93009, whole entry: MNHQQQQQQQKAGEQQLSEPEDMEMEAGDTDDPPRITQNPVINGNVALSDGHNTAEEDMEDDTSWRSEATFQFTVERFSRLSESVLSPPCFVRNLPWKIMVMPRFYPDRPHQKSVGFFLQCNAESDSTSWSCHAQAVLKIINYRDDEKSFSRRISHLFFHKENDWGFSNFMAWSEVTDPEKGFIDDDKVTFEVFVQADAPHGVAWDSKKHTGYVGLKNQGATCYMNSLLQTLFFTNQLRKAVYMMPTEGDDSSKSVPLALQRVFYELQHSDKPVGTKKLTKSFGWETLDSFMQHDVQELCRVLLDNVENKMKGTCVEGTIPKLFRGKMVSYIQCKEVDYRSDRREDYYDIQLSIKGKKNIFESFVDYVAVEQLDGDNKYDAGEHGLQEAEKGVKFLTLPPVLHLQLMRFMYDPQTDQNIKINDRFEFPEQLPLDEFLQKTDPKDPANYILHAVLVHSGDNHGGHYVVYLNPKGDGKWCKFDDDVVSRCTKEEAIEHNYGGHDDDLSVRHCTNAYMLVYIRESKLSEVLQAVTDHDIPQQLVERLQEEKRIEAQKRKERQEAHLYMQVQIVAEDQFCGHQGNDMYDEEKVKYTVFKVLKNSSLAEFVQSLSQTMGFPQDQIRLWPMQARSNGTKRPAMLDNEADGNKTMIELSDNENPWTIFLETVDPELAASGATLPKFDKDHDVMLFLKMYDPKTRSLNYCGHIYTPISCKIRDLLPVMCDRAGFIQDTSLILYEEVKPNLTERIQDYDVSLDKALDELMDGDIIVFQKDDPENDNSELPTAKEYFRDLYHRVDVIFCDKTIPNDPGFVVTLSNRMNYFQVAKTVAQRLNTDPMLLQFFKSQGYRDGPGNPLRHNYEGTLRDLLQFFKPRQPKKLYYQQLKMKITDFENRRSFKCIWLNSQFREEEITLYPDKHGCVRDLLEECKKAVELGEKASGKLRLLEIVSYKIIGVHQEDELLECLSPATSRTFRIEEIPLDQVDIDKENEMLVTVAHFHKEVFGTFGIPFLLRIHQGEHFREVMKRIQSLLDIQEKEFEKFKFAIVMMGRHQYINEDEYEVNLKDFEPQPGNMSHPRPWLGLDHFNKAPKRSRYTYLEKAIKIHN

Target: USP7 (Homo sapiens, UniProt Q93009)
Assay: Reversibility of USP7 inhibition after rapid and large dilution
Conditions: USP7 10 nM, inhibitor at 10-fold the IC50, 1 h, diluted 100-fold

In the case of `O=C(CCC1CCCC1)N1CCC(O)(Cn2cnc3ccccc3c2=O)CC1` [Example 3, 3-{[1-(3-cyclopentylpropanoyl)-4-hydroxypiperidin-4-yl]methyl}-3,4-dihydroquinazolin-4-one], the “restoration of enzymatic activity following rapid and large dilution” value is reported as > 90%.
